Laboratory results published in publication PMC10974084, “Combination of Betulinic Acid Fragments and Carbonic Anhydrase Inhibitors—A New Drug Targeting Approach” (Pharmaceutics, 2024).

How the values were obtained:
Type in all cases: cell-based
[1] = system: MCF-7 breast cancer cells; experiment: SRB cytotoxicity assay, MCF-7; settings: Homo sapiens, MCF7, 96 h incubation, mean ± SD
Method: (§1) All of the compounds were dissolved in dimethyl sulfoxide (DMSO) to achieve a 20 mM stock solution. Cells were seeded in cell culture flasks 24 h before treatment. The treatment was performed for 24 h.
(§2) The cytotoxicity of the drugs was determined in 2D tumor models using sulforhodamine B (SRB) assays. Treatment started 24 h after seeding the tumor cells in 96-well plates as previously described.

A375 melanoma cells = experiment: SRB cytotoxicity assay, A375; settings: Homo sapiens, A-375, 96 h incubation, mean ± SD
Method: as §1, §2

[2] = system: A2780 ovarian cancer cells; experiment: SRB cytotoxicity assay, A2780; settings: Homo sapiens, 96 h incubation, mean ± SD
Method: as §1, §2

Measured: IC50

CC(=O)Nc1nnc(S(N)(=O)=O)s1 [AZA, acetazolamide, reference compound]
> 100 µM: all assays above
